Test systems include MZ2-MEL; MeWo; RPMI7951; RVH-421; SkMel28; SkMel30; SkMel5; UACC257; UACC62; WM115; WM1716; WM1745; WM3526; WM3619; WM451Lu; SkMel2.
What all share (assay): cleaved PARP positive nuclei fraction relative to DMSO control; melanoma cells; higher = more apoptosis
Common to all, as to conditions: library dose: low library concentration; 72 h

This is one part of the list. Single values are uncertain, as repeats are few or missing.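 The apoptosis fraction was the count of cleaved-PARP antibody-stained nuclei relative to all DNA-stained nuclei, imaged in 1,536-well plates. Screening doses were set so most cells survived, and baseline and induced cleaved-PARP levels vary greatly across cell lines.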

For the compound `COc1cc(Nc2ncc(F)c(Nc3ccc4c(n3)NC(=O)C(C)(C)O4)n2)cc(OC)c1OC` [Tamatinib] + C/C(O)=C(\C#N)C(=O)Nc1cc(Br)ccc1Br [LFM-A13] (first compound 0.4 µM, partner dose 2 µM), the “cleaved PARP positive nuclei fraction” value was 122% in the assay with MZ2-MEL; 252% in the assay on MeWo; 92.9% with RPMI7951; 43.6% with RVH-421; 170% in the assay on SkMel28; 59.9% with SkMel30. Besides, the “cleaved PARP positive nuclei fraction” value was determined as 270% in the assay on SkMel5; 215% in the assay on UACC257; 51.5% in the assay with UACC62; 155% with WM115; 103% with WM1716; 157% in the assay on WM1745. Further, the “cleaved PARP positive nuclei fraction” value amounted to 252% with WM3526, 84.7% in the assay on WM3619 and 136% in the assay with WM451Lu.

Consider `Cn1cc(C2=C(c3cn(C4CCN(Cc5ccccn5)CC4)c4ccccc34)C(=O)NC2=O)c2ccccc21` [Enzastaurin] + COc1ccc(C2=N[C@@H](c3ccc(Cl)cc3)[C@@H](c3ccc(Cl)cc3)N2C(=O)N2CCNC(=O)C2)c(OC(C)C)c1 [Nutlin-3] (first compound 0.8 µM, partner dose 0.1 µM), for which the “cleaved PARP positive nuclei fraction” value in the assay with MZ2-MEL amounted to 152%; in the assay on MeWo, 48.8%; in the assay with RPMI7951, 85.6%; with RVH-421, 90.1%; in the assay on SkMel28, 37.9%; in the assay on SkMel2, 60.7%. Besides, the “cleaved PARP positive nuclei fraction” value in the assay on SkMel30 turned out to be 38.9%; in the assay on UACC62, 65.1%; in the assay on WM115, 65.7%; in the assay on WM1716, 54.1%; in the assay with WM1745 it was 94.5%; in the assay on WM3526, 18.5%. Besides, the entries for the “cleaved PARP positive nuclei fraction” value in the assay on WM3619 and with WM451Lu were 82.6% and 77.9%, respectively.

Regarding `C[C@]12O[C@H](C[C@]1(O)CO)n1c3ccccc3c3c4c(c5c6ccccc6n2c5c31)CNC4=O` [Lestaurtinib] + c1cc(-c2cnn3cc(-c4ccc(OCCN5CCCCC5)cc4)cnc23)ccn1 [Dorsomorphin] (first compound 0.004 µM, partner dose 0.4 µM), the “cleaved PARP positive nuclei fraction” value in the assay on MZ2-MEL amounted to 92.4%; with MeWo, 124%; with RPMI7951, 85.5%; in the assay with RVH-421, 230%; in the assay with SkMel28, 62.3%; in the assay with SkMel30, 454%. In addition, the “cleaved PARP positive nuclei fraction” value in the assay with SkMel5 was 91.7%; in the assay on UACC257, 81.3%; in the assay on UACC62, 79.3%; with WM115, 174%; in the assay with WM1716, 24.6%; in the assay with WM1745 it was 98.4%. In addition, the “cleaved PARP positive nuclei fraction” value in the assay with WM3526 amounted to 189%; with WM3619, 85.9%; in the assay on WM451Lu, 91.1%.

With `C/C(O)=C(\C#N)C(=O)Nc1cc(Br)ccc1Br` + Cc1cc([N+](=O)[O-])ccc1NS(=O)(=O)c1cc(Cl)ccc1Cl [FH535] (first compound 2 µM, partner dose 1 µM), the “cleaved PARP positive nuclei fraction” value was found to be 87.4% with MZ2-MEL; 60.5% in the assay with MeWo; 87% in the assay with RPMI7951; 84.1% in the assay with RVH-421; 114% with SkMel28; 239% in the assay on SkMel30. The “cleaved PARP positive nuclei fraction” value came out at 136% in the assay with SkMel5; 133% in the assay on UACC257; 182% in the assay with UACC62; 192% in the assay with WM115; 145% with WM1716; 208% with WM1745. Also, the results for the “cleaved PARP positive nuclei fraction” value in the assay with WM3526, with WM3619 and with WM451Lu were 149%, 92.2% and 62.4%, respectively.

Take `CCN(CC)CCCCNc1ncc2cc(-c3cc(OC)cc(OC)c3)c(NC(=O)NC(C)(C)C)nc2n1` + C/C(O)=C(\C#N)C(=O)Nc1cc(Br)ccc1Br [LFM-A13] (first compound 0.1 µM, partner dose 2 µM): the “cleaved PARP positive nuclei fraction” value with MZ2-MEL worked out at 135%; in the assay with MeWo, 179%; in the assay with RPMI7951, 48%; in the assay on RVH-421, 123%; in the assay on SkMel28, 59.6%; in the assay with SkMel30 it was 72%. Further, the “cleaved PARP positive nuclei fraction” value in the assay with SkMel5 was found to be 24.7%; in the assay with UACC257, 95.6%; with UACC62 it was 139%; in the assay on WM115, 146%; in the assay on WM1716, 79.2%; in the assay on WM1745, 114%. The figures for the “cleaved PARP positive nuclei fraction” value in the assay with WM3526, in the assay with WM3619 and with WM451Lu were 48%, 90.6% and 117%, respectively.

Regarding `C[C@]12O[C@H](C[C@]1(O)CO)n1c3ccccc3c3c4c(c5c6ccccc6n2c5c31)CNC4=O` [Lestaurtinib] + Cc1cc(SCc2sc(-c3ccc(C(F)(F)F)c(F)c3)nc2C)ccc1OCC(=O)O [GW0742] (first compound 0.004 µM, partner dose 2 µM), the “cleaved PARP positive nuclei fraction” value in the assay on MZ2-MEL worked out at 110%; with MeWo, 83.2%; in the assay with RPMI7951, 110%; in the assay on RVH-421, 212%; with SkMel28, 132%; with SkMel30 it was 130%. The “cleaved PARP positive nuclei fraction” value in the assay with SkMel5 is 61%; in the assay on UACC257 it was 210%; with UACC62, 82.7%; with WM115, 123%; in the assay on WM1716 it was 147%; in the assay with WM1745, 97.3%. Also, the “cleaved PARP positive nuclei fraction” value stood at 244% in the assay on WM3526, 94.9% in the assay on WM3619 and 94.7% in the assay on WM451Lu.

Turning to `C[C@]12O[C@H](C[C@]1(O)CO)n1c3ccccc3c3c4c(c5c6ccccc6n2c5c31)CNC4=O` [Lestaurtinib] + Cc1cc([N+](=O)[O-])ccc1NS(=O)(=O)c1cc(Cl)ccc1Cl [FH535] (first compound 0.004 µM, partner dose 1 µM), the “cleaved PARP positive nuclei fraction” value in the assay with MZ2-MEL worked out at 196%; in the assay on MeWo, 170%; with RPMI7951, 134%; in the assay with RVH-421 it was 165%; in the assay on SkMel28 it was 172%; in the assay on SkMel30, 77.9%. In addition, the “cleaved PARP positive nuclei fraction” value with SkMel5 amounted to 83.1%; in the assay on UACC257 it was 86.5%; in the assay on UACC62, 202%; in the assay with WM115 it was 96.2%; in the assay on WM1716, 204%; in the assay with WM1745, 115%. Besides, the figures for the “cleaved PARP positive nuclei fraction” value with WM3526, with WM3619 and in the assay with WM451Lu were 81.6%, 87.2% and 92.4%, respectively.

In the case of `Cc1cc(Nc2cc(N3CCN(C)CC3)nc(/C=C/c3ccccc3)n2)n[nH]1` + N.N.[Cl][Pt][Cl] [cisplatin] (first compound 0.04 µM, partner dose 1.6 µM), the “cleaved PARP positive nuclei fraction” value in the assay with MZ2-MEL worked out at 75.4%; with MeWo, 454%; in the assay on RPMI7951 it was 76.2%; in the assay with RVH-421 it was 78.3%; with SkMel28, 84.6%; in the assay on SkMel2, 84.2%. The “cleaved PARP positive nuclei fraction” value in the assay with SkMel30 is 78.3%; with UACC62 it was 379%; in the assay with WM115, 122%; in the assay on WM1716, 842%; in the assay with WM1745 it was 93.9%; with WM3526 it was 148%. Moreover, the “cleaved PARP positive nuclei fraction” value with WM3619 amounted to 88.9%; with WM451Lu it was 161%.

For `CN(C)S(=O)(=O)c1ccc2c(c1)/C(=C/c1cc3c([nH]1)CCCC3)C(=O)N2` + Cc1cc(SCc2sc(-c3ccc(C(F)(F)F)c(F)c3)nc2C)ccc1OCC(=O)O [GW0742] (first compound 0.4 µM, partner dose 2 µM), the “cleaved PARP positive nuclei fraction” value in the assay on MZ2-MEL amounted to 82%; in the assay with MeWo it was 110%; with RPMI7951 it was 80.8%; with RVH-421, 88.6%; in the assay on SkMel28, 193%; in the assay on SkMel30, 451%. Besides, the “cleaved PARP positive nuclei fraction” value in the assay on SkMel5 came out at 258%; in the assay on UACC257, 625%; in the assay with UACC62, 83.8%; in the assay with WM115 it was 164%; in the assay with WM1716, 90.7%; with WM1745, 141%. Also, the “cleaved PARP positive nuclei fraction” value in the assay on WM3526 stood at 70.1%; with WM3619, 85.3%; in the assay on WM451Lu, 321%.

Source of the values: the supplement of paper PMC4604168 (melanoma cell lines).
